Test results taken from patent publication EP1081131A1 (priority 1998, dated 1999).
At least one compound was matched to its structure with a doubt left.

Tests used:
[1] = system: M. bovis; type: cell-based
[2] = system: strain H37Rv; assay: Therapeutic action on infected guinea pigs; type: in vivo; details: after 60 days of treatment

O=C(NN=Cc1ccccc1OCCOCCOCCOc1ccccc1C=NNC(=O)c1ccncc1)c1ccncc1 [1,8-bis(2-isonicotinoyl hydrazonomethylphenoxy)-3,6-dioxaoctane]
Antimycobacterial activity of claimed preparations in tests In vitro [1]: 0.05 µg/mL
tuberculosis changes after the end of the course of treatment [2]: detected as morphological, not as bacteriological
